These are yes or no findings as the source states them, for the method shown. In cells and extracts the contact can be indirect. Some binding calls cover weakened binding; strength is not graded here.
Biological target: endogenous STIM1 of mouse vascular smooth muscle cells (mouse (endogenous in aortic VSMCs)) (UniProt P70302)
Assay: co-IP; endogenous proteins of mouse aortic smooth muscle cells; extraction in 1% Nonidet P-40, 150 mmol/L NaCl, 20 mmol/L Tris-HCl pH 8.0; IP with anti-TRPP2 or anti-STIM1 overnight at 4 °C (no antibody as control), immunoblot

Amino acid sequences for entries named in this document (tags omitted). Residues count along the entry.
UniProt P70302, residues 23-685: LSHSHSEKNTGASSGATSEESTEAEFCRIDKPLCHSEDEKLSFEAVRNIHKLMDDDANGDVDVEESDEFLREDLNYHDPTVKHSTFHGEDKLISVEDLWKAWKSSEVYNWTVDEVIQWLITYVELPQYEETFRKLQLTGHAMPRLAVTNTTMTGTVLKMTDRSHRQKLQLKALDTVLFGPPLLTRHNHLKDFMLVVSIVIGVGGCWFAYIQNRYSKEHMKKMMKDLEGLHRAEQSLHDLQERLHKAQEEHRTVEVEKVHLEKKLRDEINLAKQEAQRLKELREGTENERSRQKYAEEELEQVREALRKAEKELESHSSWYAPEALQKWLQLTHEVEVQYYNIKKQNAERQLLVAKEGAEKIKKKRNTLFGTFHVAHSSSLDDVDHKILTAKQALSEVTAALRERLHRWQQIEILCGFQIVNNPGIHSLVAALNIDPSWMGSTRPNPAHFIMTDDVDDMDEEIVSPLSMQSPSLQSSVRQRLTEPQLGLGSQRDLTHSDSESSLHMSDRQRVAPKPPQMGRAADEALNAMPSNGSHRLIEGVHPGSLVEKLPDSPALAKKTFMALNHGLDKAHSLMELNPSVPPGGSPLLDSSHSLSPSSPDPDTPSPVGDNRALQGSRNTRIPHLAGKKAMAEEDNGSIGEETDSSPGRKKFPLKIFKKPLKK

binding: binds
B1: endogenous TRPP2 of mouse vascular smooth muscle cells (protein, UniProt O35245 1-966)
chain: MVNSRRVQPQPPGDAGRSPAPRASGPGRLVAGGAGLAVPGGLGEQRGLEIEMERIRQAAARDPPAGASASPSPPLSSCSRQAWSRDNPGFEAEEDDDDDEVEGEEGGMVVEMDVEWRPGSRRSASSSAVSSVGARGRGLGSYRGAAHLSGRRRRLEDQGAQCPSPAGGGDPLHRHLPLEGQPPRVAWAERLVRGLRGLWGTRLMEESNANREKYLKSVLRELVTYLFFLVVLCILTYGMMSSNVYYYTRTLSQLFIDTPVSKTEKTNFKTLSSMEDFWKFTEGSFLDGLYWKAQTSNHTQADNRSFIFYENLLLGVPRLRQLRVRNGSCSIPQDLRDEIKECYDVYSVSSEDRAPFGPRNGTAWMYTSEKELNGSSHWGIIASYSGAGYYLDLSRTREETAAQLAGLRRNFWLDRGTRAAFIDFSVYNANINLFCVVRLLAEFPATGGVVPSWQFQPVKLIRYVTAFDFFLAACEIIFCFFIIYYVVEEILEIRIHRLSYFRSFWNCLDVVIVVLSVVAMVINIYRMSNAEGLLQFLEDQNSFPNFEHVAYWQIQFNNISAVMVFLVWIKLFKFINFNRTMSQLSTTMSRCAKDLFGFTIMFSIIFLAYAQLAYLVFGTQVDDFSTFQECIFTQFRIILGDINFAEIEEANRVLGPLYFTTFVFFMFFILLNMFLAIINDSYSEVKSDLAQQKAEMELSDLIRKGCQKALVKLKLKRNTVDAISESLRQGGGKLNFDELRQDLKGKGHTDAEIEAIFTKYDQDGDQELTEREHQQMRDDLEKEREDLDLEHSSLPRPMSSRSFPRSLDDSEEEDDEDSGHSSRRRGSISSGVSYEEFQVLVRRVDRMEHSIGSIVSKIDAVIVKLEIMERAKLKRREVLGRLLDGVAEDARLGRDSEIHREQMERLVREELERWESDDAASQTGHGVSTQVGLGGQPHPRNPRPPSSQSAEGLEGGGGNGSANVHA
